Results on three molecules are retold here after article PMC7816512.

This assay addresses T1, FLAG-HA-Rbm10 (S. pombe) (UniProt P87143).
T1 sequence: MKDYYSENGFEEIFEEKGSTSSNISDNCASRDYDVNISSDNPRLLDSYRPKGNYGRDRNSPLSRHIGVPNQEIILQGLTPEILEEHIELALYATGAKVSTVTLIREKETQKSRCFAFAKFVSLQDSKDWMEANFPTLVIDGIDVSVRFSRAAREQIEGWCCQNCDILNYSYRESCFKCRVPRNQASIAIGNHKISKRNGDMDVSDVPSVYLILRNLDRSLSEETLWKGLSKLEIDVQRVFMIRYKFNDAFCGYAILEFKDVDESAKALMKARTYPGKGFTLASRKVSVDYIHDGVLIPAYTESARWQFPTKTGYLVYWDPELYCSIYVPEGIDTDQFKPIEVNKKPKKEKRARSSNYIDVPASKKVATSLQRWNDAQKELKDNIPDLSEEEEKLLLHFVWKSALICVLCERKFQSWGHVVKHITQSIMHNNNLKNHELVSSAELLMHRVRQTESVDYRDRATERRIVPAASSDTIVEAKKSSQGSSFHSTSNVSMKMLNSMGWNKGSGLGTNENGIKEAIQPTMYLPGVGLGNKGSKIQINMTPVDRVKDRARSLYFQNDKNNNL
The experiment in a line: affinity purification with mass spectrometry; two-step purification (anti-FLAG beads, 3xFLAG peptide elution, then uMACS HA magnetic beads) of overexpressed FLAG-HA-Rbm10 from S. pombe lysate with Benzonase; three independent purifications; control purification from an untagged strain.

Results are given in words; binding and its absence hold for the method and conditions named. Binding seen in cells or lysates may run through a third protein. A yes stands for co-enrichment or nearness to the bait. Other partners may have been found. Where a sequence is shown, tags or fusion partners need not be part of it.

B1: Sap61 (protein, UniProt O59706 1-492)
chain: MSESVLETERYAHEELERLQQAIVDRQVANPKAPRERLRLEHQSAQFLNQFRETSKKLLVSHESSDRLKDQEVARINADDDLTEFYKSLGEIQEFHKKYPDHKVEDLSQLYSIKPSQPGIDEIDTLFRGEEMYGRFMDLNECYEEYINLSNVQHISYLEYLKNLEDFDQIPKPEKNQTYINYITHLYEYLVSFYRRTHPLSNLDKIIAVFDTEFDAAWEAGLPGWYSHNAEAEKDGKDSTEAFYCEVCQKFFGKITVFEAHKKSKAHNKAVKRMQSSSPSTTSNTNEKQKGPKAIARIEFLIKKLTSLLDDVRKDTRENVVRRQTLTAAERLAEVEAAEREAFEQSTPSVSVEGNQDEESDQDDEEKIYNPLKLPLGWDGKPIPFWLWKLHGLGKEFPCEICGNYVYMGRKAFDKHFTEQRHIYGLKCLGISPSPLFNQITSIDEALQLWQKYKVDSKKRETTMASLNEMEDDEGNVMSEKVYNDLKAQGLL
Take B1: the binding result is “binds”.

B2: Spt6 (protein, UniProt Q09915 1-1365)
chain: MSENEVVGSPTTNGDKNEDGYPAENGEGTNVDDNNNEEEKDGIPLDNDNDENDSSEESATDEEAERQVREGFIVEDEEDEVPQEIRRKKKRKKHAESTADQDMLDEEDLELVMENTGQGSRFSKLRRLKRGRDQEETLENIFSEEEEEEENEVDDEAPNRTQGHRAGVIDEFADFIEQDEFEDEERQEEKYETGPPIESVRPEALGISDDDYIQIYEVFGDGTDYAFALEDEDAEDELEESVSLKTIFEPSELKDKMLTEEDEIIRITDEPERMQLYMKRNIDCSEDEFREQVAWIIDYLLKNRRDIDAELYEPFQTAVRYVVHFFIRDSLEVPFIWQHRRDYIVHNNRERNTITPLLSQNDLWNIFFLCTKFWSLHSKKQDILKLYSDLGINDDLVVPFCEAASSLDAIDDLNDYIHFTYSEQIRDRALLMGTGLRRPQGSKYSFFEKFRKSSLYNLVKEFGMSAKDFSFNVAQGARLRFVEDNTLSPEELSRTYVTNELSSPEQVLQKARRVLAEEIIHDPQFRKSFRDKLYNAGVVTVLATQKGVRKIGSEHPYYEFKYLKRKPLGSFELEPILFLKMLKAEEEGLIQLSIEFEDPDDVFKGLLELFVSDNFSENAMQWNAQRELVLKEVFKRFSALAPDAIRETLRSRYLDELGMRCRNQLFSRLDQAPYEPSTKNFDRGTIPSVLAVSNGKGESSDAIICVFVDDVGEPTDSLKLADLRDLANQAMFAEFVEKVKPDVIGVSGMSVSAHKIRQHVQDSLTSHEPVDLIMVNDEVARLYQNSTRAVDEFPTLPTISCYCVALARYVQNPLFEYAAMGRDLMSLSFDPWQHLLPPDVLWKYLETALVDISSLVGIDINEAVTNKYEANILPYIAGLGPRKADYVLKKIAATGGRIDNRSDLISKQIMSRKVFINCSSFFIIPNDEYPNMDILDSTRIHNEDYELARKMASDALELDEEDIEELETNRGVVYHLLEENETGKLDELVLEEYADQLEREFHQKKRNTLEKIRLELKDPYGEQRNVFHKLTPSEIFLMLTGENPEELQADAIVPVNVRRVTNRFVAVKLDCGIDGNIKADEVSDDFIPPPQLLQVGQTVEGVIISLDEANFMVDLSLRNSVLQSANSKRQTSSHRTSYWDTEAEKRDTERMQAETQAEQRVARVIKHPLFKDLNASQAEAYLSKMQVGDLVIRPSSKGSDHIVVTWKVAEGSYQHIDVLELEKENEFTIGQKLLVKGRFEKMTYQYSDLDELIVLHIKAIAKKIDEMCIHDKFRKGTQAETEKWLESYSEANPKRSCYAFCFDHQHPGYFILCFKASVNSPVTAWPVKVIPNAFFLQGNVYGDMTALCNGFKLLYAARTKNFRRM
On to B2, for which the binding result is reported as “binds”.

B3: Sap145 (protein, UniProt Q9UUI3 1-585)
chain: MAEIQTAQNPLKELEKILERNNKQKNKKSRNQVRREKKKLLREKTNSGAKLAEKNSDDKDQLTENNDNLYNDKKSNGNFYDTNKTDSVDGMVYTTIVDSVELDPNDPLIEQFKDVFNRFKADGQEKDFEDTDKGQIMYSDDEILSEGEEDALQKQQEEKLSKKKLRKLKRMTVAQLKMLSEKADVVEWWDVSSLDPLFLTHLKAYPNTVPVPRHWNQKRDYLSGQRGIERQLFELPSYIRATGIVQMRNAVHENEADMPLRQKMRERVQPKMGKLDIDYQKLHDAFFRYQTKPVLTGFGECYFEGKELEADVKEKRPGDISEELREALGIAPGAPPPWLFAMQRYGPPPSYPDLKIPGVNCPIPTGAQWGFHPGGWGKPPVDQFNRPLYGDVFGNVKPRIHAGTGSPVSTQHWGELEEFEEEESSEEEESEDVEYPTEEITERETIEEYQSASEPRSQREDLHAEPLTYFNQSNVEVDNVELRKNTQPSSDAANRDLYQVLPEKSTNISGFMGPQHQYDIPTAEDTLPQKRNAHSMLSSTNKGDVALNQSSNWQDELSELVSEQAMKVGAAKRQKTQSKRDKFRL
B3: the binding entry was “binds”.
